Laboratory results as given in PubChem BioAssay AID1794845 (National Center for Advancing Translational Sciences (NCATS), 2023).
In all, about 6,900 compounds went through this assay and fewer than 10 were called active. Calls come from the whole dose curve; as a rule, active = well fitted curve in the direction sought with a large enough effect; inconclusive = small, poorly fitted or top-dose-only effect, or another doubt; inactive = no such curve, though single readings can be large or run the other way. Some of the results follow.

Chains of the proteins cited; added tags and fusions are not shown. Lines headed by an entry give the natural chain unless they say otherwise; changes in a name come on top.
UniProt C7C422: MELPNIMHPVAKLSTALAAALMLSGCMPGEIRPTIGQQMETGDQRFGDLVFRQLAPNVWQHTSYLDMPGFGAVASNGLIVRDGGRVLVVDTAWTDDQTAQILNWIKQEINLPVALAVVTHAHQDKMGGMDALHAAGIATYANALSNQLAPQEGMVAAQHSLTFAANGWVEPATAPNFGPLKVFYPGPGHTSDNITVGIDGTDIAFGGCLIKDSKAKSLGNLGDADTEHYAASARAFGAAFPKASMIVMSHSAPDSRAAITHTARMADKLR

target: Metallo-beta-lactamase type 2 (Klebsiella pneumoniae) (UniProt C7C422); assay: qHTS to identify inhibitors of the New Delhi Metallo-beta-lactamase (NDM): primary screen against the NCATS Gemini Collection; details: NDM-1 enzyme, meropenem hydrolysis, absorbance 300 nm; at 38.4 µM (top of the series) unless noted; note: % of control where 0% means no effect
How it was run: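 Meropenem hydrolysis (50 uM final) by 2 nM NDM-1 read as 300 nm absorbance after 30 min, following >30 min compound–enzyme preincubation in HEPES pH 7.0 with 1 uM ZnSO4 and 0.01% Tween20.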

Activity % (negative = inhibition), inactive:
O=C(CCc1c[nH]c2ccccc12)N1CC(N(Cc2ccccc2)C2CCOCC2)C1 10.9%
CS(=O)(=O)N1C[C@@H](Oc2ccccc2)C[C@H]1C(=O)N1CCCC1 -0.651%
O=C1CCN(C(=O)[C@H](Cc2ccccc2)NC(=O)c2ccoc2)CCCOCCN1 22.6%
COc1ccccc1NC(=O)N1CCN2C(=O)NC[C@H]2C1 -0.569% [at 77.1 µM]
Cc1ccc(OCC(=O)N2CCC3(CC2)N=C(c2ccc(C)cc2)NO3)cc1 -0.0167%
CC(=O)N1CCC(N[C@@H]2CO[C@H](CNS(=O)(=O)c3ccccc3)[C@H]2O)CC1 -7.27% [at 57.5 µM]
Cc1nnc2n1CCC(N(C)C(=O)NC1CCCC1)CC2 (stereo not drawn) 0.266%
COc1ccccc1CN1CC(c2noc(CCC(=O)c3ccc(C)cc3)n2)CC1=O (stereo not drawn) -0.958%
O=C(NCCCn1cccn1)c1ccccc1OC1CCN(Cc2ccccn2)CC1 12.9%
NC(=O)Cn1ccn2nc3c(c2c1=O)CCCC3 2.4%
CN(Cc1ccccc1)Cc1cc(C[C@@H]2C[C@H](NC(=O)C3CCC3)C2(C)C)no1 20.3% [at 57.5 µM]
CC(C)NC(=O)NC[C@H]1OC[C@@H](NCc2cnc[nH]2)[C@@H]1O -0.0066% [at 57.5 µM]
O=C(c1ccccn1)N1CC(CO)C2(CCNCC2)C1 (stereo not drawn) 23.5%
COCC1(C(=O)N2C[C@@H](C(=O)O)[C@H](c3ccccc3OC)C2)CCC1 7.28%
CC(C)NC(=O)CN1C(=O)NC(c2ccc(Cl)cc2)C2=C1COC2=O (stereo not drawn) 0.0502%
CCOC(=O)N1CCC(Oc2cnc3c(ccn3-c3cncnc3)c2)CC1 37.7% [at 57.5 µM]
O=C(O)CC1NCCNC1=O (stereo not drawn) 22.3%
CN1[C@@H](CCC(=O)N2CCN(c3ccccn3)CC2)CNC(=O)[C@@H]2[C@H]1CCN2Cc1ncc[nH]1 8.77%
CNC(=O)c1ccc(NC(=O)c2nc(C(O)c3ccccc3F)oc2C)cc1 (stereo not drawn) 27.5% [at 57.5 µM]
O=c1cc(-c2ccncc2)nc(-c2ccc(CN3CC[C@@H](O)C3)cc2)[nH]1 13%
Cc1nc(CN2CCOc3cc([S+](=O)([O-])N(C)C)ccc3C2)cs1 -0.929% [at 57.5 µM]
COc1ccc(-n2ccnc2-c2cc3n(n2)CCCNC3)c(OC)c1 5.69%
CNC(=O)[C@@H]1CN(C(=O)c2cc3cc(OC)ccc3[nH]2)C[C@H]1COC 9.91%

2 successive records from above:
Activity % (negative = inhibition), inactive:
CN(Cc1ccccc1)Cc1cc(C[C@@H]2C[C@H](NC(=O)C3CCC3)C2(C)C)no1 20.3% [at 57.5 µM]
CC(C)NC(=O)NC[C@H]1OC[C@@H](NCc2cnc[nH]2)[C@@H]1O -0.0066% [at 57.5 µM]
